Measurements taken from paper PMC6180102.
Results are given in words; binding and its absence hold for the method and conditions named. Some entries that bind do so weakly or less than the wild type.

Biological target: T1, Human TRPML1 (transient receptor potential mucolipin 1) (human), Q9GZU1
T1 chain: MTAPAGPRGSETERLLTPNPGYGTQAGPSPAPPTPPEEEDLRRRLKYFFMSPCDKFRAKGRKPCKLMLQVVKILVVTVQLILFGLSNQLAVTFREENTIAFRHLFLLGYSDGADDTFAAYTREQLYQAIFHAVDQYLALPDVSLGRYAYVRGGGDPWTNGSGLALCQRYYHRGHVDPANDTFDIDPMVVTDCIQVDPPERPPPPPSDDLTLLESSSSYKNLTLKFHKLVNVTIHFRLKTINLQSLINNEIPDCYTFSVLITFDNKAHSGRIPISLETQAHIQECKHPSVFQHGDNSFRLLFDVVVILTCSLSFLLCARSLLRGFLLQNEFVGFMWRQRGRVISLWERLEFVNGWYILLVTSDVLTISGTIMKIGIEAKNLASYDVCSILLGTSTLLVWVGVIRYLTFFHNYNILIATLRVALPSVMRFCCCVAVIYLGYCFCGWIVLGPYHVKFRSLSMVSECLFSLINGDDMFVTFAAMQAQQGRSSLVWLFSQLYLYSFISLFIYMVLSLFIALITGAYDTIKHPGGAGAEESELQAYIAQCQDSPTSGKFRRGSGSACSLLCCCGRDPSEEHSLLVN
Assay: cryo-EM structure; human TRPML1 in 20 mM sodium acetate pH 5.0, 150 mM NaCl, 0.06% digitonin, incubated with 0.2 mM PtdIns(3,5)P2, 0.2 mM PtdIns(4,5)P2, or 0.2 mM PtdIns(3,5)P2 plus 0.3 mM ML-SA1; 3.5-3.7 A; both purified
Settings: remark: other sources report otherwise

- binding: binds
B1: Human TRPML1 (transient receptor potential mucolipin 1), Q9GZU1 1-580 (protein)
chain: T1 chain
